# Experimental data from PubChem BioAssay AID624297 (National Center for Advancing Translational Sciences (NCATS), 2012).
# Among all 340,000 compounds or so, about 6,200 (1.8%) were called active. The inconclusive results got no clear call from the source; some entries with a clear call stand among them for comparison. The call rests on the fitted dose curve; in most records, active means well fitted activation curve with a large enough effect; inconclusive means small, poorly fitted or top-dose-only effect; inactive means no such curve, though single readings can be large or run the other way. Potencies of inconclusive entries are doubtful fits and often do not repeat.
# Assay: A quantitative high throughput screen for small molecules that induce DNA re-replication in SW480 colon adenocarcinoma cells. Further: nearly all actives have a fitted effect of over 55% in size. On re-replication activation: % of control where 0% means no effect.
# Conditions: Hoechst DNA content imaging, 48 h; re-replication activation: at 46.1 µM (top of the series) unless noted
# Summary of the method: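 Hoechst fluorescence of nuclei (405 nm excitation, 500-530 nm emission) measured by plate-scanning imager after 48 hr compound exposure at 37 C; re-replication scored as increased number of nuclei with elevated intensity.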
# Potency means the concentration at half of the fitted maximal effect.
SMILES,Potency,re-replication activation
Cn1c(=O)c2c([nH]c(=S)n2Cc2ccc(Cl)cc2)n(C)c1=O,inactive,–
COC(=O)N1C(=O)[C@](c2ccc(Cl)cc2)(C(C)C)N1C(=O)OC,"inconclusive: 16.4 µM [activator, single point]",–
Cc1ccc(NC(=O)c2cccs2)cc1NC(=O)c1ccccc1Cl,–,inconclusive: 84% [activator]
CCc1cc(C(=O)c2ccc(C)cc2)c(NC(=O)CCl)s1,"inconclusive: 29.1 µM [activator, single point]",–
C/C(=N\Nc1nc(Cl)c(Cl)cc1Cl)c1ccc(S(=O)(=O)NCc2ccco2)cc1,"inconclusive: 29.1 µM [activator, single point]",–
O=C(CCc1ccccc1)NNC(=O)c1cc(Cl)ccc1O,"inconclusive: 16.4 µM [activator, single point]",–
Cc1ccc(O)c(C(=O)c2cnc3c(c2)CN(C)C(=O)N3)c1,"inconclusive: 35.5 µM [activator, single point]",–
CC(=NC1CC1)c1c(-c2ccccc2)[nH]n(-c2nc3ccccc3s2)c1=O,"inconclusive: 31.6 µM [activator, single point]",–
O=C(Oc1c(CN2CCOCC2)cc(Cl)c2cccnc12)c1ccc(F)cc1,"inconclusive: 5.8 µM [activator, partial curve, poor fit]",–
CCC(C)NCCOCCOc1cc(C)c(Cl)c(C)c1 (configuration not stated),"inconclusive: 18.4 µM [activator, single point]",–
C[C@H](CO)N1C[C@H](C)[C@@H](CN(C)S(=O)(=O)c2ccc(F)cc2)Oc2ccc(NC(=O)NC3CCCCC3)cc2C1=O,"inconclusive: 29.1 µM [activator, single point]",–
COc1ccccc1C(=O)NNC(=O)c1ccc(F)cc1,"inconclusive: 14.6 µM [activator, partial curve, poor fit]",–
COc1ccccc1C(c1nnnn1C(C)(C)C)N1CCCc2ccccc21 (configuration not stated),"inconclusive: 16.4 µM [activator, single point]",–
O=C(Nc1ccc2c(c1)OCO2)c1ccc(NC2CC2)c([N+](=O)[O-])c1,"inconclusive: 20.6 µM [activator, single point]",–
O=C(CCl)Nc1c2c(nn1-c1ccccc1)CSC2,"inconclusive: 6.51 µM [activator, partial curve]",–
COc1ccc(S(=O)(=O)N2CCOC2CNC(=O)C(=O)NCc2ccccc2OC)cc1 (configuration not stated),inactive,–
CCCCOc1ccccc1C1CC(=O)NC2=C1C(=O)CCC2 (configuration not stated),"inconclusive: 3.66 µM [activator, full curve, poor fit]",–
CCN(CC)CCNC(=O)c1ccc(NC(=O)c2ccc(C(=O)c3ccccc3)cc2)cc1,inactive,–
CCCCc1c(C)nc2ccccc2c1SCCC(=O)O,"inconclusive: 6.51 µM [activator, single point]",–
CC(=O)c1c(C)[nH]c(C(=O)Nc2ccc(Cl)c(S(=O)(=O)N(C)C)c2)c1C,inactive,–
O=C1NCCN(C(=O)CCc2nnc(-c3ccsc3)o2)C1c1ccc(F)cc1 (configuration not stated),"inconclusive: 1.16 µM [activator, single point]",–
CC(=O)Nc1cc2c(c(Cl)c1Cl)-c1ccccc1C2=O,inactive,–
COC(=O)/C=C\C(C#N)(C#N)N=Cc1ccc(OC)cc1,active: 6.51 µM,–

SMILES,Potency,re-replication activation
Nc1n[nH]c(N)c1N=Nc1ccccc1,active: 16.4 µM,–
COc1ccc(C(=O)/C(C#N)=N/Nc2ccc([N+](=O)[O-])cc2)cc1,"inconclusive: 1.46 µM [activator, partial curve]",–
C=CCOc1ccc(Cl)cc1CNC1CCCC1,"inconclusive: 0.794 µM [activator, partial curve, poor fit]",–
Cn1c(Cc2ccccc2)nnc1SCC(=O)Nc1ccccc1,inactive,–
O=C(O)[C@H](CC(=O)N1C[C@H]2CCCC[C@H]2C1)Cc1ccccc1,inactive,–
CC1(c2ccc(Cl)cc2)NC(=O)N(CC(=O)N2CCc3ccccc32)C1=O (configuration not stated),inactive,–
CC1CCCN(CCCNC(=O)C2CCN(S(=O)(=O)N3CCC4(CC3)OCCO4)CC2)C1 (configuration not stated),inactive,–
COc1ccc(C(=O)NCC(c2cccs2)N2CCOCC2)cc1OC (configuration not stated),"inconclusive: 2.59 µM [activator, full curve, poor fit]",–
CCOC(=O)c1c(NC(=O)C2C3CCC(O3)C2C(=O)O)sc(C)c1-c1ccc(F)cc1 (configuration not stated),inactive,–
Cc1c(NC(=O)CN2CCN(c3ccc(O)cc3)CC2)c(=O)n(-c2ccccc2)n1C,"inconclusive: 1.03 µM [activator, full curve, poor fit]",–
COC(=O)CNC(=O)COC(=O)c1ccc(Cl)nc1,inactive,–
COc1ccc(C(=O)NC(=S)N2CCCCC2)cc1,"inconclusive: 2.06 µM [activator, full curve, poor fit]",–
COc1ccc(C(=O)C2CC2c2ccc3c(c2)OCO3)cc1 (configuration not stated),inactive,–
Cc1cccc(NC(=O)CCCn2cc([N+](=O)[O-])cn2)n1,inactive,–
Cn1cc(C(=O)c2ccc(Cl)cc2Cl)cc1C(=O)N/N=C(\N)COc1ccccc1,"inconclusive: 18.4 µM [activator, partial curve, poor fit]",–
Cn1c(=O)c2c(nc(Sc3ncnn3CC(=O)NC3CCCCC3)n2C)n(C)c1=O,inactive,–
O=C(NNC(=S)Nc1ccc(C(=O)O)c(O)c1)c1ccncc1,inactive,–
COc1ccc(-n2ccnc2SCC(=O)Nc2cc(C)on2)cc1,"inconclusive: 16.4 µM [activator, single point]",–
CCSc1nsc(NC(=O)Nc2cccc(C(C)=O)c2)n1,"inconclusive: 18.4 µM [activator, single point]",–
CCC1(c2ccc(F)cc2)NC(=O)N(CC(=O)Nc2ccc(S(N)(=O)=O)cc2)C1=O (configuration not stated),inactive,–
COC(=O)[C@@]1(Cc2ccc(OC)cc2)[C@H]2c3cc(C(=O)N4CCCC4)n(Cc4ccc(C)o4)c3C[C@H]2CN1C(=O)c1ccccc1,"inconclusive: 20.6 µM [activator, single point]",–
CCN1CCc2c(sc(NC(=O)C3COc4ccccc4O3)c2C(N)=O)C1 (configuration not stated),"inconclusive: 29.1 µM [activator, partial curve, poor fit]",–
COc1ccc(C(=O)/C=C/c2ccccc2F)c(OC(=O)c2ccc([N+](=O)[O-])cc2)c1,"inconclusive: 25.9 µM [activator, single point]",–
CC1(C)CC(=O)C=C(c2cccc(Br)c2)C1,inactive,–

# Structures shown so far that contain four or more nitrogen atoms (18):
SMILES,Potency,re-replication activation
Cn1c(=O)c2c([nH]c(=S)n2Cc2ccc(Cl)cc2)n(C)c1=O,inactive,–
C/C(=N\Nc1nc(Cl)c(Cl)cc1Cl)c1ccc(S(=O)(=O)NCc2ccco2)cc1,"inconclusive: 29.1 µM [activator, single point]",–
CC(=NC1CC1)c1c(-c2ccccc2)[nH]n(-c2nc3ccccc3s2)c1=O,"inconclusive: 31.6 µM [activator, single point]",–
C[C@H](CO)N1C[C@H](C)[C@@H](CN(C)S(=O)(=O)c2ccc(F)cc2)Oc2ccc(NC(=O)NC3CCCCC3)cc2C1=O,"inconclusive: 29.1 µM [activator, single point]",–
COc1ccccc1C(c1nnnn1C(C)(C)C)N1CCCc2ccccc21 (configuration not stated),"inconclusive: 16.4 µM [activator, single point]",–
O=C1NCCN(C(=O)CCc2nnc(-c3ccsc3)o2)C1c1ccc(F)cc1 (configuration not stated),"inconclusive: 1.16 µM [activator, single point]",–
Nc1n[nH]c(N)c1N=Nc1ccccc1,active: 16.4 µM,–
COc1ccc(C(=O)/C(C#N)=N/Nc2ccc([N+](=O)[O-])cc2)cc1,"inconclusive: 1.46 µM [activator, partial curve]",–
Cn1c(Cc2ccccc2)nnc1SCC(=O)Nc1ccccc1,inactive,–
CC1CCCN(CCCNC(=O)C2CCN(S(=O)(=O)N3CCC4(CC3)OCCO4)CC2)C1 (configuration not stated),inactive,–
Cc1c(NC(=O)CN2CCN(c3ccc(O)cc3)CC2)c(=O)n(-c2ccccc2)n1C,"inconclusive: 1.03 µM [activator, full curve, poor fit]",–
Cc1cccc(NC(=O)CCCn2cc([N+](=O)[O-])cn2)n1,inactive,–
Cn1cc(C(=O)c2ccc(Cl)cc2Cl)cc1C(=O)N/N=C(\N)COc1ccccc1,"inconclusive: 18.4 µM [activator, partial curve, poor fit]",–
Cn1c(=O)c2c(nc(Sc3ncnn3CC(=O)NC3CCCCC3)n2C)n(C)c1=O,inactive,–
O=C(NNC(=S)Nc1ccc(C(=O)O)c(O)c1)c1ccncc1,inactive,–
COc1ccc(-n2ccnc2SCC(=O)Nc2cc(C)on2)cc1,"inconclusive: 16.4 µM [activator, single point]",–
CCSc1nsc(NC(=O)Nc2cccc(C(C)=O)c2)n1,"inconclusive: 18.4 µM [activator, single point]",–
CCC1(c2ccc(F)cc2)NC(=O)N(CC(=O)Nc2ccc(S(N)(=O)=O)cc2)C1=O (configuration not stated),inactive,–

# Next part

SMILES,Potency,re-replication activation
O=Cc1ccc([B-](F)(F)F)s1,"inconclusive: 29.1 µM [activator, single point]",–
Cc1ccc(C)c(NC(=S)Nc2cccc3cnccc23)c1,active: 13 µM,–
CCn1nc(C(C)C(=O)O)c2ccccc2c1=O (configuration not stated),"inconclusive: 1.46 µM [activator, partial curve, poor fit]",–
COc1cccc(CNC(=O)C(=O)NCCc2ccc(OC)c(OC)c2)c1,"inconclusive: 29.1 µM [activator, single point]",–
Cc1sc2ncn(CC(=O)N3CCN(c4ccccn4)CC3)c(=O)c2c1S(=O)(=O)N1CCC(C)CC1,inactive,–
CC(Oc1cc(F)ccc1[N+](=O)[O-])C(=O)N(C)CC(=O)Nc1ccccc1C(F)(F)F (configuration not stated),inactive,–
CC(C)c1nc(N(C)S(C)(=O)=O)nc(-c2ccc(F)cc2)c1/C=C/C(O)CC(O)CC(=O)O (configuration not stated),"inconclusive: 33.5 µM [activator, single point]",–
CCN(CC)c1ccc(/C=N/OCC(=O)N2CCCc3ccccc32)cc1,inactive,–
CCOC(=O)c1sc2ncnc(Nc3cccc(C(=O)O)c3)c2c1C,–,inconclusive: -22.5% [activator]
CC1Cc2ccccc2N1C(=O)COC(=O)c1c2c(nc3ccccc13)CCCCC2 (configuration not stated),"inconclusive: 16.4 µM [activator, partial curve, poor fit]",–
COc1cc(-c2c(C#N)c(N)nc3c2c(C)nn3-c2ccc(C)c(C)c2)cc(OC)c1OC,inactive,–
CCc1ccc(Nc2n[n+](-c3ccccc3)c(-c3c(Cl)cccc3Cl)s2)cc1,"inconclusive: 9.2 µM [activator, single point]",–
O=C(NC12CC3CC(CC(C3)C1)C2)c1ccc(-c2cccc(Cl)c2)o1,"inconclusive: 2.31 µM [activator, full curve, poor fit]",–
Cc1cccc(-c2cccc(NC(=O)C3CCCN(C(=O)c4cccnc4)C3)c2)c1 (configuration not stated),"inconclusive: 6.51 µM [activator, single point]",–
CN(CCc1ccccc1)C(=O)c1ccc(NC(=O)Cc2cccc(NC(=O)C3CCN(C(=O)c4ccccc4)CC3)c2)cc1,inactive,–
O=C(CN1C(=O)c2ccccc2C1=O)Nc1cccc2cccnc12,inactive,–
CCOC(=O)c1cnc2c(cnn2CC)c1NN=C(C)C,inactive,–
c1nc(SSc2ncnc3nc[nH]c23)c2[nH]cnc2n1,"inconclusive: 16.4 µM [activator, partial curve, poor fit]",–
Cc1ccc(-n2ncc(Br)c(Br)c2=O)cc1,inactive,–
COc1cccc(C(=O)C2CCCN(Cc3c(C)n(C)n(-c4ccccc4)c3=O)C2)c1 (configuration not stated),inactive,–
CC(C)(Cc1ccc(O)cc1)NC(=O)c1ccccc1,"inconclusive: 4.61 µM [activator, partial curve, poor fit]",–
O=C(Nc1ccccn1)C(=O)Nc1ccccn1,inactive,–
Nc1ncnc2c(C3OC(CO)C(O)C3O)scc12 (configuration not stated),"inconclusive: 0.13 µM [activator, full curve, poor fit]",–
O=[N+]([O-])c1ccc(CSc2nnc(Cc3ccccc3)o2)cc1,"inconclusive: 4.11 µM [activator, single point]",–
